The campaign covered roughly 360,000 compounds. About 7,500 (2.1%) were called active. The shares of active, inactive and inconclusive entries below differ from those in the screen. Calls follow the shape of the dose curve; as a rule, active = well fitted inhibition curve with a large enough effect; inconclusive = small, poorly fitted or top-dose-only effect, or effect the other way; inactive = flat fitted curve, though single readings scatter. Potencies of inconclusive entries are doubtful fits and often do not repeat.
experiment: Nrf2 qHTS screen for inhibitors; settings: A549 ARE-Fluc reporter, luciferase luminescence, 18-24 h; series mostly up to 46 µM; also: nearly all actives have a fitted effect of over 60% in size
Summary of the method: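 A549 ARE_Fluc cells, 5000/well, 5% FBS OPTI-MEM; compounds in dose-response, 18-24 h at 37 °C/5% CO2; CellTiter-Fluor viability read (Ex 405/Em 525), then BugLite luciferase luminescence = Nrf2 activity.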
Potency is read from the fitted curve at half-maximal effect.

**Q.** For `Nc1cccc2c1C(=O)N(Cc1cccc(Cl)c1)C2=O`, which Potency is on record?
**A.** inconclusive: 20.6 µM [falling, partial curve]

**Q.** Which Potency does the source give for `C[C@]12c3[nH]c4cc(-c5ccco5)ccc4c3CCN1C(=O)[C@@H](CC(=O)NCCc1ccccn1)C[C@@H]2C(=O)N1CCCCC1` here?
**A.** inactive

**Q.** With `O=C(c1ccc(SCc2cccc(Br)c2)c([N+](=O)[O-])c1)N1CCN(c2ccccn2)CC1` as the molecule, how does the Potency read?
**A.** inconclusive: 16.4 µM [falling, single point]

**Q.** With `CC(=O)Nc1ccccc1OCC(=O)NCCc1ccc(Cl)cc1Cl` as the molecule, how does the Potency read?
**A.** inconclusive: 13 µM [falling, partial curve, poor fit]

**Q.** For `COc1ccc(N2CCN(CCNC(=O)C3CCN(S(=O)(=O)c4cccs4)CC3)CC2)cc1`, which Potency is on record?
**A.** inconclusive: 13 µM [falling, partial curve, poor fit]

**Q.** Which Potency does the source give for `COc1cc(C(C)=O)ccc1OCC(O)Cn1nc(C)c(Br)c1C` (configuration not stated) here?
**A.** inactive

**Q.** Which Potency does the source give for `CCCCOc1ccc(CNC(=O)c2cnc3sc(N4CCC(C)CC4)nn3c2=O)cc1` here?
**A.** inconclusive: 29.1 µM [activator, partial curve, poor fit]

**Q.** Which Potency does the source give for `O=C(O)CC(Cc1ccccc1)c1ccc2c(c1)OCO2` (configuration not stated) here?
**A.** inconclusive: 9.2 µM [falling, partial curve]

**Q.** With `Cn1cnnc1SCc1ccc(C(=O)O)cc1` as the molecule, how does the Potency read?
**A.** inactive

**Q.** For `COc1ccc(-c2oc3ncnc(NCCN4CCOCC4)c3c2-c2ccc(OC)cc2)cc1`, which Potency is on record?
**A.** inactive

**Q.** For `O=C(NCc1cccc(Cl)c1)c1ccc2c(c1)OCCO2`, which Potency is on record?
**A.** inconclusive: 13 µM [activator, partial curve, poor fit]

**Q.** Which Potency does the source give for `Cc1ccc(CSCCNS(=O)(=O)c2ccccc2)cc1` here?
**A.** inconclusive: 16.4 µM [falling, partial curve, poor fit]

**Q.** For `COc1cc(NC(=O)C/C(C)=N/NC(=O)c2cccs2)c(OC)cc1Cl`, which Potency is on record?
**A.** inconclusive: 18.4 µM [activator, partial curve]

**Q.** With `CCCN(Cc1cc2cc(C)ccc2[nH]c1=O)S(C)(=O)=O` as the molecule, how does the Potency read?
**A.** inconclusive: 16.4 µM [activator, partial curve, poor fit]

**Q.** For `COc1cc(/C=N/NC(=O)Cc2ccccc2)ccc1Oc1ccc([N+](=O)[O-])cc1[N+](=O)[O-]`, which Potency is on record?
**A.** inconclusive: 29.1 µM [falling, single point]

**Q.** Which Potency does the source give for `CC(C)c1ccc2occ(CC(=O)Nc3cccc(C(F)(F)F)c3)c2c1` here?
**A.** inconclusive: 29.1 µM [falling, single point]

**Q.** For `COc1ccc(OC)c(NC(=O)CCc2c(C)nc3c(c(C)nn3C(C)(C)C)c2C)c1`, which Potency is on record?
**A.** inconclusive: 32.6 µM [activator, partial curve, poor fit]

**Q.** For `O=C(CN(C(=O)c1csnn1)c1ccc2c(c1)OCCO2)NCc1ccccc1`, which Potency is on record?
**A.** inconclusive: 25.9 µM [activator, single point]

**Q.** Which Potency does the source give for `CC1CCCCN1c1nc(-c2ccc(C(C)(C)C)cc2)nc2ccccc12` (configuration not stated) here?
**A.** inconclusive: 4.61 µM [activator, full curve]

**Q.** With `O=C(NC(=O)c1c(Cl)cccc1Cl)Nc1ccc(Oc2cccnc2)nc1` as the molecule, how does the Potency read?
**A.** inconclusive: 16.4 µM [falling, partial curve, poor fit]

**Q.** Which Potency does the source give for `Cc1ccc(C)c(N2CCN(C(=O)Cn3c(C)c4cnn(-c5ccccc5)c(=O)c4c3C)CC2)c1` here?
**A.** inconclusive: 16.4 µM [falling, partial curve, poor fit]

**Q.** With `CCCCC(=O)N1C/C=C\C(c2ccc(OC)cc2)N(Cc2ccc(F)cc2)C(=O)C1Cc1ccccc1` (configuration not stated) as the molecule, how does the Potency read?
**A.** active: 23.1 µM

**Q.** Which Potency does the source give for `Cc1ccc(OCC(O)CNC2CCCC2)c(C)c1` (configuration not stated) here?
**A.** inactive

**Q.** With `CCOc1ccc2oc(-c3ccccc3)c(C(N)=O)c2c1` as the molecule, how does the Potency read?
**A.** inconclusive: 5.8 µM [activator, partial curve, poor fit]

**Q.** Which Potency does the source give for `O=C(c1ccc2oc(Cc3ccc(Cl)cc3)nc2c1)N1CC[C@H](O)C1` here?
**A.** inconclusive: 23.1 µM [activator, single point]

**Q.** With `Cc1cccc(OCCOc2ccccc2C=C(C#N)C#N)c1` as the molecule, how does the Potency read?
**A.** inactive

**Q.** Which Potency does the source give for `CCOC(=O)c1ccc(N2C(=O)C3C(/C=C/c4ccccc4)OC4(C(=O)c5ccccc5C4=O)C3C2=O)cc1` (configuration not stated) here?
**A.** inconclusive: 0.164 µM [falling, full curve, poor fit]

**Q.** Which Potency does the source give for `CCCCCCn1c(CN2CCN(Cc3ccccc3)CC2)nc2c1c(=O)n(C)c(=O)n2C` here?
**A.** inconclusive: 23.1 µM [falling, single point]

**Q.** With `CN(N=O)c1ccc(CC2CCc3ccccc32)cc1` (configuration not stated) as the molecule, how does the Potency read?
**A.** inconclusive: 16.4 µM [activator, partial curve, poor fit]

**Q.** Which Potency does the source give for `CSCCC(NS(=O)(=O)c1ccc2c(c1)OCCO2)C(=O)N(C)Cc1ccc(C)cc1` (configuration not stated) here?
**A.** inconclusive: 36.6 µM [falling, partial curve, poor fit]

**Q.** Which Potency does the source give for `O=C(CCCOc1ccccc1)Nc1ccc(Cl)c(S(=O)(=O)N2CCOCC2)c1` here?
**A.** inconclusive: 29.1 µM [falling, single point]

**Q.** With `C=CC[n+]1c(-c2ccc(Cl)cc2Cl)csc1Nc1c(C)n(C)n(-c2ccccc2)c1=O` as the molecule, how does the Potency read?
**A.** inconclusive: 16.4 µM [falling, partial curve, poor fit]

**Q.** With `O=c1oc2ccc(F)cc2cc1-c1nc(-c2cccs2)no1` as the molecule, how does the Potency read?
**A.** inactive

**Q.** Which Potency does the source give for `Cc1cc2nc(C3CCN(CC4COc5ccccc5O4)CC3)[nH]c2cc1C` (configuration not stated) here?
**A.** inconclusive: 29.1 µM [falling, single point]

**Q.** Which Potency does the source give for `Cc1cccc(OCc2nnc(-c3ccccc3)o2)c1` here?
**A.** inconclusive: 10.3 µM [activator, partial curve, poor fit]

**Q.** Which Potency does the source give for `CCN1CCN(C(=O)c2ccc3c(c2)N(Cc2ccc(F)cc2)C(=O)c2ccccc2S3(=O)=O)CC1` here?
**A.** inconclusive: 1.3 µM [falling, full curve]

**Q.** With `CCn1c(NC(=O)C(C)C)c2ccccc2nc1=O` as the molecule, how does the Potency read?
**A.** inactive

**Q.** For `Cn1cc(C(=O)c2ccc(Cl)cc2Cl)cc1C(=O)N/N=C(\N)COc1ccc(F)cc1`, which Potency is on record?
**A.** inconclusive: 29.1 µM [falling, single point]

**Q.** For `COC(=O)c1cc(CNC(=O)c2sccc2-c2ccccc2)ccc1OC`, which Potency is on record?
**A.** inconclusive: 32.6 µM [falling, partial curve, poor fit]

**Q.** For `Cc1c(NC(=O)c2ccc(Cl)cc2)cc(C(C)C)c(O)c1S(=O)(=O)c1ccccc1`, which Potency is on record?
**A.** inconclusive: 2.06 µM [activator, full curve, poor fit]

**Q.** With `O=C(Cc1ccc2c(c1)OCCO2)c1c(O)cc(O)cc1O` as the molecule, how does the Potency read?
**A.** inactive

**Q.** Which Potency does the source give for `O=S(=O)(c1cc(C(F)(F)F)ccc1Cl)N1CCN(c2ncnc3ccccc23)CC1` here?
**A.** active: 18.4 µM

**Q.** With `COc1cc(OC)cc(C(=O)N[C@H](C(=O)Nc2nc3c(s2)CCCC3)C(C)C)c1` as the molecule, how does the Potency read?
**A.** active: 23.1 µM

**Q.** For `O=[N+]([O-])c1cc(CN2CCN(c3cccc(C(F)(F)F)c3)CC2)c2cccnc2c1O`, which Potency is on record?
**A.** inconclusive: 4.61 µM [falling, partial curve, poor fit]

**Q.** For `Cc1snc2sc(C(=O)c3ccc(F)cc3)c(N)c12`, which Potency is on record?
**A.** inactive

**Q.** Which Potency does the source give for `CC(C)CC(=O)Nc1ccc2nn(-c3ccccc3)nc2c1` here?
**A.** inconclusive: 16.4 µM [activator, single point]

**Q.** With `O=[N+]([O-])c1ccc(COc2ccc(CN3CCOCC3)cc2)cc1` as the molecule, how does the Potency read?
**A.** inconclusive: 1.64 µM [activator, full curve]

**Q.** With `Nc1ccc2cccc(O)c2c1` as the molecule, how does the Potency read?
**A.** inactive

**Q.** For `COc1ccccc1CNC(=O)CCS(=O)(=O)c1ccc2c(c1)CC(C)N2C(=O)C1CC1` (configuration not stated), which Potency is on record?
**A.** inconclusive: 6.51 µM [activator, single point]

**Q.** With `Cc1cc(=O)n(Cc2ccccc2Cl)c2c1c(C)nn2-c1ccccc1` as the molecule, how does the Potency read?
**A.** inconclusive: 14.6 µM [activator, partial curve]

**Q.** With `COc1cccc2c(C)c(C(=O)O)[nH]c12` as the molecule, how does the Potency read?
**A.** active: 20.6 µM

**Q.** Which Potency does the source give for `COc1ccc(Cl)cc1NC(=O)CN(C)C(=O)c1ccc(N2CCCCC2)c([N+](=O)[O-])c1` here?
**A.** inconclusive: 16.4 µM [falling, single point]

**Q.** With `O=C(NCC1CCN(Cc2ccccc2Cl)CC1)c1cc2ccc3cccnc3c2[nH]1` as the molecule, how does the Potency read?
**A.** inconclusive: 16.4 µM [activator, partial curve]

**Q.** For `Cc1cccc(C(=O)NCC(=O)OCc2nnc(-c3ccccc3)o2)c1`, which Potency is on record?
**A.** inactive

**Q.** Which Potency does the source give for `C/C(=N\NC(=S)Nc1cccc(C)c1)c1cc2ccccc2o1` here?
**A.** inactive

**Q.** Which Potency does the source give for `Cc1ccc(NC(=S)N/N=C2\CC(C)(C)Oc3ccc(O)cc32)cc1` here?
**A.** inactive

**Q.** Which Potency does the source give for `CCCc1cc(=O)oc2cc(C)cc(OCC(=O)Nc3ccccn3)c12` here?
**A.** inactive

**Q.** With `Cc1nc(N)nc(COc2ccccc2)n1` as the molecule, how does the Potency read?
**A.** inconclusive: 9.2 µM [activator, partial curve]

**Q.** With `Cc1ccn2c(Nc3c(C)cccc3C)c(-c3ccc(Cl)s3)nc2c1` as the molecule, how does the Potency read?
**A.** inconclusive: 32.6 µM [falling, single point]

**Q.** For `COc1cc(C(=O)NCC2CCCO2)cc(Br)c1OCc1ccccc1` (configuration not stated), which Potency is on record?
**A.** inconclusive: 16.4 µM [falling, single point]

**Q.** For `Cc1ccc(OCc2nc(C#N)c(NCc3ccc4c(c3)OCO4)o2)cc1`, which Potency is on record?
**A.** inactive

**Q.** Which Potency does the source give for `CCOC(=O)C1(Cc2cccc(OC)c2)CCN(Cc2cc(OC)ccc2OC)CC1` here?
**A.** inconclusive: 5.8 µM [activator, single point]

**Q.** With `CCCCN(CCCC)C1=C(C(=O)c2ccccc2)N(CC)S(=O)(=O)c2ccccc21` as the molecule, how does the Potency read?
**A.** inconclusive: 29.1 µM [falling, single point]

**Q.** Which Potency does the source give for `Cc1ccc(N2CC(C(=O)N3CCC4(CC3)CC(=O)c3ccccc3O4)CC2=O)cc1` (configuration not stated) here?
**A.** inconclusive: 18.4 µM [falling, single point]

**Q.** Which Potency does the source give for `Fc1cccc(Cl)c1C1Nc2cccc3cccc(c23)N1` here?
**A.** inactive

**Q.** With `COc1ccc(/C=N/N2C(C)CCCC2C)cc1OC` (configuration not stated) as the molecule, how does the Potency read?
**A.** inconclusive: 29.1 µM [activator, single point]

**Q.** For `O=C(O)CCn1c(SCCOc2ccccc2F)nc2ccccc21`, which Potency is on record?
**A.** inconclusive: 2.31 µM [falling, partial curve, poor fit]

— PubChem BioAssay AID504444 (National Center for Advancing Translational Sciences (NCATS), 2011)
